Results reported in article PMC5511170.
No constants are given. Whether binding was seen depends on the method and setting. Binding can be weak; no strength is given. Where a sequence is shown, tags or fusion partners need not be part of it.

The chains behind the UniProt entries cited, without tags or fusion partners. Where a name states a change or a piece, a line headed by the entry shows the natural chain unless it says otherwise.
UniProt P25694: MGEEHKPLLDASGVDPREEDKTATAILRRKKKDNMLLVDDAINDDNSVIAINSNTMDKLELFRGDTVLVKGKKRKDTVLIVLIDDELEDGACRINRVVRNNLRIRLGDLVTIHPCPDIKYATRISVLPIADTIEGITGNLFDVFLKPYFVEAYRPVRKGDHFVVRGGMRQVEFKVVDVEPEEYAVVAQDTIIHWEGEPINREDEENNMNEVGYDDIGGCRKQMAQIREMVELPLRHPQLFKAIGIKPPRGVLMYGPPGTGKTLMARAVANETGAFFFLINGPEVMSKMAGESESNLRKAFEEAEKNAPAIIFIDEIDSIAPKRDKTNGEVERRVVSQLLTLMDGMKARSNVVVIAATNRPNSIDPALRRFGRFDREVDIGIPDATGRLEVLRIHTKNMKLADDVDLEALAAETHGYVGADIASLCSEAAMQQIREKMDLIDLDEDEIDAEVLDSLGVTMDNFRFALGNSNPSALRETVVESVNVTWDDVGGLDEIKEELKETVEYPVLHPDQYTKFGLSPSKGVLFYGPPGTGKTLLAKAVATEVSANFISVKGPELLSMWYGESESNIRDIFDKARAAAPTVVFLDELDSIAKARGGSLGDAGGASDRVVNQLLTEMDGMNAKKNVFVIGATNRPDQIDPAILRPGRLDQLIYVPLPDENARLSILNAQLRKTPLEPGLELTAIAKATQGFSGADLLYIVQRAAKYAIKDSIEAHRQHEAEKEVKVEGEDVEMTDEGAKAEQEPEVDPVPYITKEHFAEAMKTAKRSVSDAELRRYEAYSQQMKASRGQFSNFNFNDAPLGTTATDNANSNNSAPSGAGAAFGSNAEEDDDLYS

Molecular target: T1, GST-Ufd2 (yeast (Saccharomyces cerevisiae)) (UniProt P54860)
T1 sequence: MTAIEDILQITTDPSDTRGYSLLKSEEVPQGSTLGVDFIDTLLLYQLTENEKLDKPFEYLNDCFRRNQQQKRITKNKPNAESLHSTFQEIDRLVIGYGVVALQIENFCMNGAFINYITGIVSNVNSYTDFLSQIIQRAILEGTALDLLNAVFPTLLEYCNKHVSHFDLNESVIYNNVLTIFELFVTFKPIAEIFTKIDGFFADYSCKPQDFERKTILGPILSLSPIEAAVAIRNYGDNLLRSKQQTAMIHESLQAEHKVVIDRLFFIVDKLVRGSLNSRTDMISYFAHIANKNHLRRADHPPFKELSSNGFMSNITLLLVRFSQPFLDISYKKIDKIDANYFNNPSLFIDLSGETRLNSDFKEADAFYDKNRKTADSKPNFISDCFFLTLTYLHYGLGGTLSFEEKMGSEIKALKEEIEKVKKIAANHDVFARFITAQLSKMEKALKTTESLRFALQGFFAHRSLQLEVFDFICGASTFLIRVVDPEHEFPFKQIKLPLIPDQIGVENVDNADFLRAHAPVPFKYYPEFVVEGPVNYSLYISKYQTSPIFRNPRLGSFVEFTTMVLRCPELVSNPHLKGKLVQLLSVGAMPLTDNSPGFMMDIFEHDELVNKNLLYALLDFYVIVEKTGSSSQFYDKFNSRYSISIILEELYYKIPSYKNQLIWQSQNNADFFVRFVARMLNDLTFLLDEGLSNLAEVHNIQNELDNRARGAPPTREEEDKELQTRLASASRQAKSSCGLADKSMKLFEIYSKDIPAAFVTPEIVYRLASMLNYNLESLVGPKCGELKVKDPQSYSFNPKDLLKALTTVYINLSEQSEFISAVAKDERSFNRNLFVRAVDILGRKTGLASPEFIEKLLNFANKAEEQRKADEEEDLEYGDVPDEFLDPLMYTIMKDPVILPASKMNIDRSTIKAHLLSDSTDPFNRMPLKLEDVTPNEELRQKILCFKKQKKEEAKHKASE
Assay: pull-down; GST-Ufd2 (40 pmol) incubated with 20 pmol Cdc48 in 100 µL 20 mM Tris-HCl pH 7.4, 50 mM NaCl, 1 mM MgCl2, 5 mM β-mercaptoethanol, 20% glycerol, 10 min at 25 °C; then glutathione-sepharose 4B 30 min at room temperature; eluted with glutathione; immunoblot with anti-Cdc48 and anti-GST; both purified

binding: binds
Substance: Cdc48 without the last Ser835 residue (∆S, N-terminally His-tagged) (from UniProt P25694) (domain or fragment)
